One substance from paper PMC12558843 can be followed below.

Sequences of proteins named here, by UniProt entry; tags and fusion partners are left off.
UniProt P09429: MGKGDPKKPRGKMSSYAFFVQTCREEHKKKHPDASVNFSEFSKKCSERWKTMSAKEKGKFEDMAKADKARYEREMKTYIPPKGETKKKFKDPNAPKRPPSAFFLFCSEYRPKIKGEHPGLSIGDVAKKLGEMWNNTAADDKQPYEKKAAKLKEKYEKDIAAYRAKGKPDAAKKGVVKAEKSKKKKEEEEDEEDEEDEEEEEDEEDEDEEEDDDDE
UniProt Q14457: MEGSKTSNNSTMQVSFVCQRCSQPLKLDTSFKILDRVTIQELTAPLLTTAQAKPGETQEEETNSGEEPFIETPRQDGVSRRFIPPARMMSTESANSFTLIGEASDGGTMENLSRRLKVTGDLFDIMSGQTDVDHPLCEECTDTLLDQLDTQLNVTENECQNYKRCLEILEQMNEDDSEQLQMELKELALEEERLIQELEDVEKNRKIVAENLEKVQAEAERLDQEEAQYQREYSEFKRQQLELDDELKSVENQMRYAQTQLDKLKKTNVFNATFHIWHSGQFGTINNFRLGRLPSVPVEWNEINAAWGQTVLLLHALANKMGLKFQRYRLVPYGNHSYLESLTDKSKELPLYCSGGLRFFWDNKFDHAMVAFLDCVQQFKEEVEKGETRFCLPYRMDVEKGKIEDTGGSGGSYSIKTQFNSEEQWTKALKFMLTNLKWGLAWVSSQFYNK

Results are given in words; binding and its absence hold for the method and conditions named. Binding seen in cells or lysates may run through a third protein. Some binding calls cover weakened binding; strength is not graded here.

The target of assay [1] is High mobility group box 1 (HMGB1) (human (endogenous in HCT116 and HT29 CRC cells)) (UniProt P09429). In words: proximity ligation; Duolink in situ PLA on fixed, permeabilised CRC cells with anti-rabbit PLUS and anti-mouse MINUS probes, confocal microscopy; cells with or without 4 Gy X-ray irradiation.
For assay [2] the target is unchanged. In words: co-IP; Co-IP kit (Absin abs955); CRC cell lysate incubated with mouse anti-HMGB1 antibody or mouse IgG overnight at 4°C, protein A + G agarose beads, blot for BECN1; cells with or without irradiation.

As to “Beclin 1 (BECN1) (from UniProt Q14457 1-450)”, the binding result in assay [1] and in assay [2] was “binds” each time.
